Results taken from paper doi:10.1101/2022.06.05.494812.
Results are given in words; binding and its absence hold for the method and conditions named. Binding seen in cells or lysates may run through a third protein. Some binding calls cover weakened binding; strength is not graded here. Sequences can lack the tags named with a protein.

Assays:
Test in all cases: co-IP
[1] = target: T1, Flag-Baz (Bazooka, Par3) (Drosophila) (UniProt O96782)
T1 sequence: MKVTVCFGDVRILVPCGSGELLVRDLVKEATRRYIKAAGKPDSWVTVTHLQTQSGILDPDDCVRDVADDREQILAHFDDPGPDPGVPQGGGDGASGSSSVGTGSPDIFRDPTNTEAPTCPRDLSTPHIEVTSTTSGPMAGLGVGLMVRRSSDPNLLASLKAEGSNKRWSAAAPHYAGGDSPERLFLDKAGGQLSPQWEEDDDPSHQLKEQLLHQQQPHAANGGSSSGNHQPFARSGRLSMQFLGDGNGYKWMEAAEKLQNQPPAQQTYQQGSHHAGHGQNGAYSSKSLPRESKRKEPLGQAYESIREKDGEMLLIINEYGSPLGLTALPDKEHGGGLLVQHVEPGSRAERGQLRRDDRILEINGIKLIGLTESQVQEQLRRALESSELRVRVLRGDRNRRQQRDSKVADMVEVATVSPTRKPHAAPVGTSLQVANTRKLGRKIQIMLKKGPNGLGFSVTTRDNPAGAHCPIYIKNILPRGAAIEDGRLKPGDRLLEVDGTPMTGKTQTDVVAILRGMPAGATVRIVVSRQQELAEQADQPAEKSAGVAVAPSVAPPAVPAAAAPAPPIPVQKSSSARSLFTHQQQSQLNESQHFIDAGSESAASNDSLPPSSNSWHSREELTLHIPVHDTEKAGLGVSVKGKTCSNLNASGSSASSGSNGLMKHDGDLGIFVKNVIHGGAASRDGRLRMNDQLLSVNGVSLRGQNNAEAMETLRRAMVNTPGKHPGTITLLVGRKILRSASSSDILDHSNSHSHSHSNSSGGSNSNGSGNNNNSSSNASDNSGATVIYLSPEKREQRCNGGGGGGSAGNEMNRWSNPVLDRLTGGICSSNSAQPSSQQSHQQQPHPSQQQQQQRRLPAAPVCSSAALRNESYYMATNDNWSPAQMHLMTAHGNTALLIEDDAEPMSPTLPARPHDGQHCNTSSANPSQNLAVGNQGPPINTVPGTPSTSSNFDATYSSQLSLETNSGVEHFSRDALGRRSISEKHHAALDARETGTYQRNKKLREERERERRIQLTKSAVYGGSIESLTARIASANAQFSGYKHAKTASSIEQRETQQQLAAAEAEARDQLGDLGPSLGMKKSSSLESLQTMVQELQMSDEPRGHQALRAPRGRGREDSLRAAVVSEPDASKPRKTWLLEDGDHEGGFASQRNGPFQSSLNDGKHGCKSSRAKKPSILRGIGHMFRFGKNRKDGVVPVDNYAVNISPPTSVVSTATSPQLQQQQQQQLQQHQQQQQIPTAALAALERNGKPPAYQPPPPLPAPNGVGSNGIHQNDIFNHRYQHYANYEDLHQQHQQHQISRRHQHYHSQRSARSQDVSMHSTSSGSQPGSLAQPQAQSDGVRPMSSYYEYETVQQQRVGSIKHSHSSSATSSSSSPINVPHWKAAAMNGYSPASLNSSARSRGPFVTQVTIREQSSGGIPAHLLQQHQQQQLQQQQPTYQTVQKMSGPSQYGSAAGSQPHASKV

[2] = target: T2, Myc-tagged Baz (Bazooka, Par3) (Drosophila) (UniProt O96782)
T2 sequence: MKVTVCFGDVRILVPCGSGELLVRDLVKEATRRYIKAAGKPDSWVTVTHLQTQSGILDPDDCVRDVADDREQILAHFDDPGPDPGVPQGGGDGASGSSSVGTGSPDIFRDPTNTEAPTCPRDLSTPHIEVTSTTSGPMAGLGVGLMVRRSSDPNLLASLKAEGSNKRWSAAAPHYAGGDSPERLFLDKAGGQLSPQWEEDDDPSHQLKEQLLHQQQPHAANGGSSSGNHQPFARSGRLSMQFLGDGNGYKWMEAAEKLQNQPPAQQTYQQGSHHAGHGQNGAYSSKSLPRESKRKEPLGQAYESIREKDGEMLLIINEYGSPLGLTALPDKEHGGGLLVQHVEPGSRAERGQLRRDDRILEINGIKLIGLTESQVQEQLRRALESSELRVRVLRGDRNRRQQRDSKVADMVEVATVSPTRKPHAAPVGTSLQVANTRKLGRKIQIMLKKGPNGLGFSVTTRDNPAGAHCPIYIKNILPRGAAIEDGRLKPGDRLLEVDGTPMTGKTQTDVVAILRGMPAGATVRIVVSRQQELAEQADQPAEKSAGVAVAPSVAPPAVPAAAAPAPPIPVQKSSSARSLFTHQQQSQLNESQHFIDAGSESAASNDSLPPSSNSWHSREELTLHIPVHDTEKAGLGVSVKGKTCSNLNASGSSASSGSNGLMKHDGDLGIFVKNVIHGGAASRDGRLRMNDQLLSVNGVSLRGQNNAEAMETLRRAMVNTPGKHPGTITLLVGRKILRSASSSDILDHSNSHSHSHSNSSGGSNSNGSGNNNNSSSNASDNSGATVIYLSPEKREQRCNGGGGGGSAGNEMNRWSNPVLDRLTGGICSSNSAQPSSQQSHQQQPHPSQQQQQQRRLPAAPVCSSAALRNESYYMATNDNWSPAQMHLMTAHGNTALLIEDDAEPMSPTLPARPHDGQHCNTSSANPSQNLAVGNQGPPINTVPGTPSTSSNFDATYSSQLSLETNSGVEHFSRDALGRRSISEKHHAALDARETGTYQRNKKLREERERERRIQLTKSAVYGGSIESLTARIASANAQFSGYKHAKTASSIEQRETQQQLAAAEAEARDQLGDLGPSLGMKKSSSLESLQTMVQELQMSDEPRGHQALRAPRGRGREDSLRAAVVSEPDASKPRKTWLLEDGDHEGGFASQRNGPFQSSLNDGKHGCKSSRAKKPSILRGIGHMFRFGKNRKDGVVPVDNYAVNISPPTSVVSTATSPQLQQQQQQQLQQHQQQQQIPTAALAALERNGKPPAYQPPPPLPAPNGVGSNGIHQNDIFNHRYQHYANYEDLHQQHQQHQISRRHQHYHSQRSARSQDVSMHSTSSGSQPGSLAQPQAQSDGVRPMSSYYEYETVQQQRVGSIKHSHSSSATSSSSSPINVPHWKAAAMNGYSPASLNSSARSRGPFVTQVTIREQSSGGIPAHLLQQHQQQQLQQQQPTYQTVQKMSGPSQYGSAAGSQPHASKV

[3] = target: T3, Flag-Insc (Inscuteable) (Drosophila) (UniProt Q24367)
T3 sequence: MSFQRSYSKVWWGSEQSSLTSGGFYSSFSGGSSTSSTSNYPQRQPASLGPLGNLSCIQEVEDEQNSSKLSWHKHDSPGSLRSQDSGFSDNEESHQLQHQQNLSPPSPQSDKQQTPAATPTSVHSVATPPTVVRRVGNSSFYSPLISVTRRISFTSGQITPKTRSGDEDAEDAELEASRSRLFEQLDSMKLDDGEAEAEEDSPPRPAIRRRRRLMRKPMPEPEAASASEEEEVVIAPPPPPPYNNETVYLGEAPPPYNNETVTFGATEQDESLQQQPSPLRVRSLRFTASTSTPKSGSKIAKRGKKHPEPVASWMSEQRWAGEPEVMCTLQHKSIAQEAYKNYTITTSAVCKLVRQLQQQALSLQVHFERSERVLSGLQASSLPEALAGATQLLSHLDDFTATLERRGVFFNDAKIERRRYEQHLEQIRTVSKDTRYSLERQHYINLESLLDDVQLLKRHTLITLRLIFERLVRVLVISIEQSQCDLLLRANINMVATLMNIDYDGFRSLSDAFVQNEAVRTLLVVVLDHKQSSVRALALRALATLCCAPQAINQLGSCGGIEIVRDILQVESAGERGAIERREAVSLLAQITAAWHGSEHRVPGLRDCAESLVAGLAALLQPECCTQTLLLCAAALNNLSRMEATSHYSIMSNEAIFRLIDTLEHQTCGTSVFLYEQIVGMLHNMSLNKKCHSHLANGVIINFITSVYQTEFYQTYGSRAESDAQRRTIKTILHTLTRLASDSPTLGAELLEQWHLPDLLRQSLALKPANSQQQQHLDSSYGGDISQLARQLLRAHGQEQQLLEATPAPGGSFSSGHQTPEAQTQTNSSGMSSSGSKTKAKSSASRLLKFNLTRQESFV

binding [1]: binds
binding [2]: binds
binding [3]: binds
B1: armadillo (arm)/β-catenin, expressed in S2 cells (protein, UniProt P18824 1-843)
chain: MSYMPAQNRTMSHNNQYNPPDLPPMVSAKEQTLMWQQNSYLGDSGIHSGAVTQVPSLSGKEDEEMEGDPLMFDLDTGFPQNFTQDQVDDMNQQLSQTRSQRVRAAMFPETLEEGIEIPSTQFDPQQPTAVQRLSEPSQMLKHAVVNLINYQDDAELATRAIPELIKLLNDEDQVVVSQAAMMVHQLSKKEASRHAIMNSPQMVAALVRAISNSNDLESTKAAVGTLHNLSHHRQGLLAIFKSGGIPALVKLLSSPVESVLFYAITTLHNLLLHQDGSKMAVRLAGGLQKMVTLLQRNNVKFLAIVTDCLQILAYGNQESKLIILASGGPNELVRIMRSYDYEKLLWTTSRVLKVLSVCSSNKPAIVDAGGMQALAMHLGNMSPRLVQNCLWTLRNLSDAATKVEGLEALLQSLVQVLGSTDVNVVTCAAGILSNLTCNNQRNKATVCQVGGVDALVRTIINAGDREEITEPAVCALRHLTSRHVDSELAQNAVRLNYGLSVIVKLLHPPSRWPLIKAVIGLIRNLALCPANHAPLREHGAIHHLVRLLMRAFQDTERQRSSIATTGSQQPSAYADGVRMEEIVEGTVGALHILARESHNRALIRQQSVIPIFVRLLFNEIENIQRVAAGVLCELAADKEGAEIIEQEGATGPLTDLLHSRNEGVATYAAAVLFRMSEDKPQDYKKRLSIELTNSLLREDNNIWANADLGMGPDLQDMLGPEEAYEGLYGQGPPSVHSSHGGRAFHQQGYDTLPIDSMQGLEISSPVGGGGAGGAPGNGGAVGGASGGGGNIGAIPPSGAPTSPYSMDMDVGEIDAGALNFDLDAMPTPPNDNNNLAAWYDTDC
